## Primary screen of a compound library

From ChEMBL document CHEMBL3988442, “University of Dundee, Small-Polar-MMV Screening Library” (2021).

T. brucei: 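Whole-parasite assay of Trypanosoma brucei over 72 hours; the read-out is not stated. Concentration: 30 µM. Higher reads as stronger inhibition (inferred: compounds with an IC50 in retests scored well above the rest). Values scatter widely below zero; nearly all retest evidence comes from the higher of the two concentrations used. Size under these conditions: about 64,000 compounds, about 940 of them at 50% or above in at least one test.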
Toxoplasma: 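Assay of Toxoplasma gondii numbers, read through their beta-galactosidase reporter with a colour substrate. Tested at 10 µM. The record gives no direction; the compounds picked for IC50 retests had high values, so higher reads as fewer parasites. Size under these conditions: about 67,000 compounds, about 260 of them at 50% or above in at least one test.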
Leishmania in macrophages: 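Cell assay of Leishmania donovani living inside macrophages; the read-out is not stated. Compounds at 30 µM. Direction is inferred from retests: higher values go with stronger inhibition. About 69,000 compounds were tested under these conditions; 1.5% (about 1,000) showed 50% or more at least once.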

Values are the deposited “Percent Effect”, in %. How 0% and 100% were set is not recorded. Most values in the screen are low, and negative values occur. The compounds are a random part of those screened. Two or more numbers in one place are separate tests of the same structure; such repeats can differ widely. A dash means the value is not listed here; it may have been measured.

| compound | T. brucei | Toxoplasma | Leishmania in macrophages |
|---|---|---|---|
| `Cc1cccc(-c2nc(C)nn2CC(=O)NC(C)C)c1` | -34.77 | 31.26 | 2.339 |
| `O=C(c1c[nH]c(=O)[nH]1)N1CCc2ccccc21` | -1.977 | -3.615 | 26.78 |
| `Cn1cc(C2CCCN2C(=O)CCn2c(=O)oc3ccccc32)cn1` (stereo not shown) | -3.101 | 2.264 | 29.01 |
| `CCC(CCNCc1cnc(C2CCC2)s1)N1CCCC1=O` (stereo not shown) | -41.18 | 2.575 | -22.91 |
| `N#Cc1cc(N2CCC(CS(N)(=O)=O)CC2)c2ccccc2n1` | 5.032 | 0.4633 | 30.12 |
| `Cc1ccc(-c2ccnc3cc(CC(=O)N4CCN(C)CC4)nn23)cc1` | -14.16 | 21.89 | 1.951 & 17 |
| `CC(C)(C)c1cc(=O)n2c(n1)SCC(C(=O)NCc1cccs1)C2` (stereo not shown) | -42.72 | 4.301 | 19.52 |
| `COCCc1noc(CNC2CCSC2)n1` (stereo not shown) | 31.49 | -4.35 | 36.59 |
| `N[C@H]1c2ccccc2C[C@@H]1NC(=O)C1CCN(Cc2ccco2)CC1` | 1.375 | 8.491 | 15.56 |
| `Cc1nc(CN(C)C(=O)C2CC(=O)N(c3cccc(O)c3)C2)cs1` (stereo not shown) | -26.47 | -9.976 | -6.7 |
| `Cc1ccc(C(=O)Nc2ccc(N(C)C)cn2)n1C` | -2.435 | 6.943 | 15.94 |
| `COCCNC(=O)c1cc(S(=O)(=O)N2CCCCCC2)cs1` | -18.44 | 0.1407 | -26.24 & -3.448 |
| `CC(=O)Nc1nc(COc2nc(C)no2)cs1` | -88.02 | -0.2157 | -16.85 |
| `Cc1ccc(C(C(=O)NCCN2CCCCCC2)N(C)C)cc1` (stereo not shown) | -27.04 | -16.48 | -9.158 |
| `O=C(CNc1ccc(F)cc1OCC(F)(F)F)NCC(F)(F)F` | -51.02 | 7.528 | -0.4032 |
| `CNS(=O)(=O)c1cccc(CNC(=O)c2cc(C)no2)c1` | - | -12.79 | -22.93 |
| `Cc1nnc(CN(C)S(=O)(=O)c2ccc(Br)cc2Cl)n1C` | -6.434 | -13.76 | 25.06 |
| `CN1CCN(C[C@@H]2CN(C(=O)NCC3CCCCC3)C[C@@H]2CO)CC1` | -52.6 | 31.43 | -4.473 |
| `CCNC(=O)CNC(=O)c1nc(C2CC2)n(-c2ccccc2Cl)n1` | - | 4.98 | -1.925 |
| `CCCc1cc(N2CCC(NCC3(O)CCN(C)CC3)CC2)nc(C)n1` | - | -22.49 | 1.425 |
| `COc1cccc(NC(=O)C2CC(=O)n3cnnc3S2)c1` (stereo not shown) | -13.66 | 18.57 | -8.613 |
| `Cc1ccc(-c2cc(C(F)(F)F)nc(N3CCOCC3)n2)s1` | -24.17 | -3.229 | 2.404 |
| `CCOCC1CN(C(=O)C2=CCCC2)Cc2cnn(CC)c21` (stereo not shown) | - | 1.452 | 12.02 |
| `CCN(CC(C)C#N)C(=O)CNc1ccc(F)c(C)c1` (stereo not shown) | -49.42 | 18.78 | -7.608 |
| `CN1CCC(N(C)CCC(=O)N2CCC(Cc3ccc(F)cc3)CC2)C1` (stereo not shown) | -67.17 | -0.1082 | 24.59 |
| `O=C1CC2(CCCCN2C(=O)c2ccsc2)CN1CC1CC1` (stereo not shown) | 5.954 | 6.758 | 15.53 |
| `NC(=O)C1CCN(C(=O)CCCc2nnc(-c3ccccc3)o2)CC1` | -11.29 | -6.082 | -21.25 |
| `O=C1OCCN1CCS(=O)(=O)c1cccc(Cl)c1` | -24.18 | 1.826 | 25.65 |
| `[H][C@]12CCN(C(=O)c3cc[nH]n3)[C@@]1([H])CC(=O)N2Cc1cccnc1` | 9.332 | -8.099 | 3.997 |
| `CN(CCn1nc2ccccn2c1=O)CC(=O)N(C)C1CCCCC1` | -26.25 | -12.64 | 4.76 |
| `CN(C)Cc1cccc(-c2cccnc2C(=O)NCc2cn(C)cn2)c1` | -4.306 | 1.48 | 6.021 |
| `COc1cccc(-c2noc(-c3ccc(NCC(C)C)nc3)n2)c1OC` | 3.504 | 0.8274 | 13.56 |
| `CN1CCCC2(CCN(c3cc(C(F)(F)F)nc(N(C)C)n3)C2)C1=O` (stereo not shown) | -20.29 | -1.308 | 17.93 |
| `O=C(O)C(F)(F)F.[H][C@@]12CCCO[C@]1([H])[C@H](N(C)Cc1ccco1)CN2C(=O)c1ccnnc1` | 6.033 | 10.27 | 25.15 |
| `CN(Cc1cc(C2CC2)on1)C(=O)C(c1cccnc1)N1CCCC1` (stereo not shown) | - | -11.45 | -20.71 |
| `Cc1cnn(CC2CCCN2Cc2noc(C(C)C)n2)c1` (stereo not shown) | -13.65 | -21.99 | -9.88 |
| `CCc1n[nH]c(C2CN(CCCOc3cccc(C)c3)CCO2)n1` (stereo not shown) | -31.45 | 21.2 | 8.64 |
| `Cc1ccoc1-c1nnc(CN2CCn3c(C)nnc3C2)o1` | -3.504 | -12.62 | 14 |
| `CCNC(=O)[C@@H]1CCCN1C1(C(=O)NC)CCC1.Cl` | -8 | -10.01 | 9.665 |
| `Cc1cc(C(=O)N(C)C2CCN(C)C2)c2ccc(F)cc2n1` (stereo not shown) | -21.6 | -23.71 | 17.27 |
| `Cc1nc[nH]c1CN1CCC2(CC1)CC(Nc1ncccn1)CO2.O=C(O)C(F)(F)F` (stereo not shown) | -22.29 | 16.76 | -7.088 |
| `CC(C)(O)CN1CCN(C(=O)c2cccnc2O)CC1` | -11.22 | -2.331 | 11.74 |
| `CCn1cc(C(=O)N(C)Cc2c(F)cccc2Cl)cn1` | 1.598 | 4.099 | 13.53 |
| `Cn1nnc2c1CCN(Cc1ccncc1)C2COCC1CC1.O=C(O)C(F)(F)F.O=C(O)C(F)(F)F` (stereo not shown) | 49.24 | -18.85 | 8.798 |
| `O=C(CCSc1ccc(F)cc1)N1CCN(c2cnccn2)CC1` | -62.17 | -7.665 | 4.234 |
| `CC(C)Cc1cc(C(=O)NCC(O)c2ccc(F)cc2)n(C)n1` (stereo not shown) | -21.48 | 3.082 | -7.273 |
| `Cc1nc(C)n(CCCn2ccnc2-c2cc3n(n2)CCCNC3)n1` | -92.2 | -8.282 | 18.29 |
| `CC(=O)N(Cc1noc(C)n1)C1CCN(Cc2ccccc2C#N)C1` (stereo not shown) | -4.609 | -0.2812 | 12.55 |
| `COc1cccc(CN(C)C(=O)CCC(=O)c2ccccc2)c1OC` | -52.49 | 4.047 | 24.8 |
| `CC(C)N1CCCC2(CCN(c3nccc(C(F)(F)F)n3)C2)C1=O` (stereo not shown) | -21.97 | 5.858 | 2.336 |
| `CC(C)(C)c1coc([C@@H]2COCCN2Cc2ncc[nH]2)n1` | -22.48 | -10.39 | 9.486 |
| `Brc1cc(CNCc2nnc3n2CCC3)cs1.Cl` | -53.44 | 5.3 | 25.9 |
| `Cc1cc(CCC(=O)N2CC[C@H](O)C2)ccc1Br` | 7.49 | -8.403 | -18.41 |
| `O=C1CC2(CCSC2)C(=O)N1Cc1coc(-c2cccc(F)c2)n1` (stereo not shown) | 14.65 | -1.652 | -0.546 |
| `CC(C)c1ccc(-n2cc(O)c(C(=O)N3CCC(C(N)=O)CC3)n2)cc1` | - | -3.119 | -21.63 |
| `Cc1ccc(CNc2ccc(C(=O)N3CCNC(=O)C3)cn2)cc1` | -43.63 | 2.336 | -7.078 |
| `CCNc1cc(N2CCN(C(=O)c3ccc(OC)cc3)CC2)nc(C)n1` | -51.94 | -5.921 | -3.701 |
| `O=C(O)C(F)(F)F.O=C(O)C(F)(F)F.O=C1COC2(CCN(Cc3ccncc3)CC2)CN1c1ccccc1` | -13.33 | -9.273 | 9.999 |
| `CN1C(=O)CC(c2cnn(C)c2)C12CCN(C(=O)c1ccc[nH]1)CC2` (stereo not shown) | -25.23 | -6.276 | 11.02 |
| `CCC(C)N(Cc1sccc1C)C(=O)c1cc(N)ccn1` (stereo not shown) | 4.519 | -15.56 | 14.44 |
| `CN1CCC(N(C)CCC(=O)N2CCC(CCc3ccccc3)CC2)C1` (stereo not shown) | -38.72 | -2.38 | 33.4 |

The last 5 entries again:

Result for CCNc1cc(N2CCN(C(=O)c3ccc(OC)cc3)CC2)nc(C)n1 was T. brucei: -51.94%; Toxoplasma: -5.921%; Leishmania in macrophages: -3.701%.
Result for O=C(O)C(F)(F)F.O=C(O)C(F)(F)F.O=C1COC2(CCN(Cc3ccncc3)CC2)CN1c1ccccc1 was T. brucei: -13.33%; Toxoplasma: -9.273%; Leishmania in macrophages: 9.999%.
Result for CN1C(=O)CC(c2cnn(C)c2)C12CCN(C(=O)c1ccc[nH]1)CC2 (stereo not shown) was T. brucei: -25.23%; Toxoplasma: -6.276%; Leishmania in macrophages: 11.02%.
Result for CCC(C)N(Cc1sccc1C)C(=O)c1cc(N)ccn1 (stereo not shown) was T. brucei: 4.519%; Toxoplasma: -15.56%; Leishmania in macrophages: 14.44%.
Result for CN1CCC(N(C)CCC(=O)N2CCC(CCc3ccccc3)CC2)C1 (stereo not shown) was T. brucei: -38.72%; Toxoplasma: -2.38%; Leishmania in macrophages: 33.4%.